The values that follow come from US20200171163A1.

Positions count from the first letter of the chain named. Results are given in words; binding and its absence hold for the method and conditions named. Some results given as binding are weak or reduced against the parent protein; the word gives no strength.

Sequences and labels used below:
T1: EC4 deletion mutant of human CDH6 (human) (UniProt P55285)
T1 sequence: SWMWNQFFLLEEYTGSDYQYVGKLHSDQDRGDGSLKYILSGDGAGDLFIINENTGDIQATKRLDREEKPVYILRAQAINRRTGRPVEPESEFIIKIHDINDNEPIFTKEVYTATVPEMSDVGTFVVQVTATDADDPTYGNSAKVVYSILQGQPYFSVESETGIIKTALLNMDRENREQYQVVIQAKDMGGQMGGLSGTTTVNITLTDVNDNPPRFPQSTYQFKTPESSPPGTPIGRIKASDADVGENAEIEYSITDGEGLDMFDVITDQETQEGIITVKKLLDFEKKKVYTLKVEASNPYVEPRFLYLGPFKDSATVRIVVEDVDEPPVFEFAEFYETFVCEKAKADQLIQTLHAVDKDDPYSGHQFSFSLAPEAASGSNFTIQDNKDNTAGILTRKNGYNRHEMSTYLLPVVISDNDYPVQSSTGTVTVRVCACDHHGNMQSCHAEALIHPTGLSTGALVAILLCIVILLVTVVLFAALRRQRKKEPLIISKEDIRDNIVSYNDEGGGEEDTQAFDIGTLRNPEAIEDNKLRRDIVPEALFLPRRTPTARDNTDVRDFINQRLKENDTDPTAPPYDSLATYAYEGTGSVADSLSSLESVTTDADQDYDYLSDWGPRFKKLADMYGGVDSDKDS

T2: EC2 deletion mutant of human CDH6 (human) (UniProt P55285)
T2 sequence: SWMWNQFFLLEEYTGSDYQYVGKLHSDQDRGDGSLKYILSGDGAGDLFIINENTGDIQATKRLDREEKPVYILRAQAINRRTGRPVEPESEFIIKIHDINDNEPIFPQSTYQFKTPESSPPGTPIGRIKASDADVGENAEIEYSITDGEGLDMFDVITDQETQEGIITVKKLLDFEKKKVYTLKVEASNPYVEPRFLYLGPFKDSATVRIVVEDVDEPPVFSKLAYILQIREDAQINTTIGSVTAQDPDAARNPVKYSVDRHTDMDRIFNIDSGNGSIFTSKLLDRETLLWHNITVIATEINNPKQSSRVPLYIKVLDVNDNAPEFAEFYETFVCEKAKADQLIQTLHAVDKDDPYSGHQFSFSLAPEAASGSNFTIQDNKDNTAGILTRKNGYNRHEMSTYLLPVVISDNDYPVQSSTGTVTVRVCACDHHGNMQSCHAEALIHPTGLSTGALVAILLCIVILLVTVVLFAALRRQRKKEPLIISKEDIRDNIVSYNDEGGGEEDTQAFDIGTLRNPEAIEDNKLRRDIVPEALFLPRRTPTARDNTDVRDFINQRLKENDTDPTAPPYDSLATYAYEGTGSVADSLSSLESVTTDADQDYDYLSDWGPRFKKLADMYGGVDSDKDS

T3: EC1 deletion mutant of human CDH6 (human) (UniProt P55285)
T3 sequence: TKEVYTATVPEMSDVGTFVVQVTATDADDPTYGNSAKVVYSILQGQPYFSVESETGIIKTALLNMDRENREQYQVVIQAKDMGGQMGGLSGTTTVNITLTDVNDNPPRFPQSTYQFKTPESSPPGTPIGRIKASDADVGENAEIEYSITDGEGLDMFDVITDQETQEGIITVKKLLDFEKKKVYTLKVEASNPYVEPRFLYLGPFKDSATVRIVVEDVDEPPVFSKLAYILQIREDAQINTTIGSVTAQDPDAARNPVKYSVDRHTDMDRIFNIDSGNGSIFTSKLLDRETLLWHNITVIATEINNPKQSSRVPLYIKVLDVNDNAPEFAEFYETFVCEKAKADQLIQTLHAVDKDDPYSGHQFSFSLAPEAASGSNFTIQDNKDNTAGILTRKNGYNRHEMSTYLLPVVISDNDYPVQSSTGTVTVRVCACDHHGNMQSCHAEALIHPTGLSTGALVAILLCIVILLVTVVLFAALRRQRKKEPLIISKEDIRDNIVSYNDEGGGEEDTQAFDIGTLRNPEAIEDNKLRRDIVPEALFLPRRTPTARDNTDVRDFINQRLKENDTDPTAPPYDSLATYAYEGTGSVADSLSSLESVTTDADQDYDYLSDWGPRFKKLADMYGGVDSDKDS

T4: EC5 deletion mutant of human CDH6 (human) (UniProt P55285)
T4 sequence: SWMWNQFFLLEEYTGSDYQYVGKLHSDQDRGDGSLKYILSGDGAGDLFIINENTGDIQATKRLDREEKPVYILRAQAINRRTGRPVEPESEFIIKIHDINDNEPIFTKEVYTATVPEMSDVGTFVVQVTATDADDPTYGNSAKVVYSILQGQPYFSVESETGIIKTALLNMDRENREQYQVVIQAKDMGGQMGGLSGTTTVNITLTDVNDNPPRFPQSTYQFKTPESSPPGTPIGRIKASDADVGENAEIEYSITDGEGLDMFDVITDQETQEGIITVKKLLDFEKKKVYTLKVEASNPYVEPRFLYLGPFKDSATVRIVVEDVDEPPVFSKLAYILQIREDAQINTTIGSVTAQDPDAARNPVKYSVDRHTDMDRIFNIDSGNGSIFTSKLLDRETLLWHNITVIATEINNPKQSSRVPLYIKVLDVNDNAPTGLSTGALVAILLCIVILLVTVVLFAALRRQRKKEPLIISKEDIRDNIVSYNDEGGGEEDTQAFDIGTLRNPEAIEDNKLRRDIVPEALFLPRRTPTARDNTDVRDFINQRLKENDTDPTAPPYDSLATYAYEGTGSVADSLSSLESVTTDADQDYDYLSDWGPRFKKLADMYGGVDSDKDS

B1: rG019 antibody (antibody, V domains shown)
VH: QVQLQQSGAELVKPGSSVKISCKASGYTFTRNFMHWIKQQPGNGLEWIGWIYCGDGETEYNQKFNGKATLTADRSSSTAYMELSRLTSEDSAVYFCARGVYGGFAGGYFDFWGQGVMVTVSS
VL: DIQMTQSPSLLSASVGDRVTLNCKASQNIYKNLAWYQQKLGEGPKLLIYDANTLQTGIPSRFSGSGSGSDFTLTISSLQPEDVATYFCQQYYSGWAFGGVTNLELKRA
B2: rG056 antibody (antibody, V domains shown)
VH: EVQLQESGPGLVKPSQSLSLTCSVTDYSITTYFWGWIRKFPGNKMEWMGYMSYRGGTSYNPSLKSRISITRDTSKNQFFLQLNSVTTEDTATYYCARCPNYGGHSLVFDYWGQGVMVTVSS
VL: DVQMTQSPSSLAASPGESVSISCRATKSIGIYLAWYQQKPGKTFKLLIYSGSTLQSGTPSRFSGSGSGTDFTLTIRSLEPEDFGLYFCQQFYENPFTFGSGTKLEIRR
B3: rG055 antibody (antibody, V domains shown)
VH: EVQLQESGPGLVRPSQSLSLSCSVTDYSITSNYWGWIRRFPGNKMEWMGYITYSGYTSYNPSLQSRISITRDTSKNQFFLQLNSVTAEDTATYYCARSINHGGYSYVVDAWGPGASVTVSS
VL: DVQMTHSPSYLAASPGESVSISCKTSKNISNYLVWYQQKPGEAYKLLIYSGSTLQSGTPSRFSGSGSGTDFTLTIRSLEPEDFGLYFCQQYYEKPFTFGSGTKLEIKR
B4: rG061 antibody (antibody, V domains shown)
VH: EVQLQESGPGLVKPSQSLSLTCSVTGYSITTYYWGWIRKFPGNKMEWMGYISYSGRTSYNPSLKSRMSITRDASKNQFFLQLNSVTTDDTATYYCARSPINHGGYWYFDFWGPGTMVTVSS
VL: B3 VL with H6Q, T25A, S26T, N28S, V34A, L46V, F87S, F96L
B5: H02L02 antibody (antibody, human IgG1, kappa, V domains shown)
VH: EVQLVQSGAEVKKPGASVKVSCKASGYTFTRNFMHWVRQAPGQGLEWMGWIYPGDGETEYNQKFQGRVTITADRSTSTAYMELSSLRSEDTAVYFCARGVYGGFAGGYFDFWGQGTLVTVSS
VL: DIQMTQSPSSLSASVGDRVTITCKASQNIYKNLAWYQQKPGKAPKLLIYDANTLQTGVPSRFSGSGSGSDFTLTISSLQPEDFATYFCQQYYSGWAFGQGTKVEIKR
B6: H02L03 antibody (antibody, human IgG1, kappa, V domains shown)
VH: B5 VH
VL: B5 VL with P40L, K42E, A43G, S69T, F87Y

The target in one experiment is T1, EC4 deletion mutant of human CDH6 (human). Nature of the experiment: flow cytometry; 293α cells transfected with EC4-deleted hCDH6 (open) vs untransfected control cells (shaded); antibody 20 nM; anti-rat IgG-FITC. Background: Flow cytometry measures light scatter and fluorescence of single cells or particles in a stream.
For B1, the binding entry is “binds”.
Still for that read-out and setting: the entry for B2 is “binds”; for B3 it is “binds”.
Same read-out and setting: the entry for B4 is “binds”.

For a further experiment, the target named is T2, EC2 deletion mutant of human CDH6 (human). The experiment in a line: flow cytometry, transfected 293α cells, 20 nM antibody.
As for B1, the binding result was “binds”.
For the molecule B2, the binding result is listed as “binds”.
Same read-out and setting: next, B3: “binds”.
Same read-out and setting: next, B4: “binds”.

For a further experiment, the target named is T3, EC1 deletion mutant of human CDH6 (human). Described as above.
In the case of B1, the binding result was “binds”.
Still for that read-out and setting: the entry for B2 is “binds”; for B3 it is “binds”.
Still for that read-out and setting: the entry for B4 is “binds”.

For the next experiment, the target named is T4, EC5 deletion mutant of human CDH6 (human). Described as above.
For the molecule B1, the binding result is on record as “binds”.
On to B2, for which the binding entry is listed as “binds”.
Same read-out and setting: the entry for B3 is “binds”; for B4 it is “binds”.

Another experiment addresses T1, EC4 deletion mutant of human CDH6 (human). The experiment is described as above.
B1: the binding result is reported as “binds”.
Same read-out and setting: the entry for B2 is “binds”; for B3 it is “binds”.
Still for that read-out and setting: next, B4: “binds”.

Another experiment concerns the target T4, EC5 deletion mutant of human CDH6 (human). Nature of the experiment: flow cytometry; 293α cells transfected with EC5-deleted hCDH6 (open) vs untransfected control cells (shaded); APC anti-human IgG.
With B5, the binding result is listed as “binds”.
Same read-out and setting: next, B6: “binds”.

In another experiment the target is T3, EC1 deletion mutant of human CDH6 (human). Nature of the experiment: flow cytometry; 293α cells transfected with EC1-deleted hCDH6 (open) vs untransfected control cells (shaded); APC anti-human IgG.
As for B5, the binding result is on record as “binds”.
The same measure, in the same setting: the entry for B6 is “binds”.

For the next experiment, the target named is T2, EC2 deletion mutant of human CDH6 (human). The experiment in a line: flow cytometry, transfected 293α cells.
With B5, the binding entry is listed as “binds”.
Same read-out and setting: next, B6: “binds”.

For a further experiment, the target named is T3, EC1 deletion mutant of human CDH6 (human). Nature of the experiment: flow cytometry, transfected 293α cells.
With B5, the binding entry is reported as “binds”.
Same read-out and setting: the entry for B6 is “binds”.

The next experiment concerns the target T4, EC5 deletion mutant of human CDH6 (human). Nature of the experiment: flow cytometry, transfected 293α cells.
With B5, the binding result is on record as “binds”.
Still for that read-out and setting: the entry for B6 is “binds”.

The next experiment deals with T1, EC4 deletion mutant of human CDH6 (human). The experiment in a line: flow cytometry, transfected 293α cells.
Take B5: the binding entry was “binds”.
Same read-out and setting: the entry for B6 is “binds”.

A further experiment deals with T3, EC1 deletion mutant of human CDH6 (human). The experiment in a line: flow cytometry; 293α cells transfected with EC1-deleted hCDH6 (open) vs untransfected control cells (shaded); antibody 20 nM; anti-rat IgG-FITC.
Turning to B1, the binding entry was “binds”.
Same read-out and setting: the entry for B2 is “binds”.
Still for that read-out and setting: next, B3: “binds”; B4: “binds”.

Another experiment has as its target T2, EC2 deletion mutant of human CDH6 (human). Nature of the experiment: flow cytometry; 293α cells transfected with EC2-deleted hCDH6 (open) vs untransfected control cells (shaded); APC anti-human IgG.
For B5, the binding entry is listed as “binds”.
On the same count and under the same terms, the entry for B6 is “binds”.

The target in a further experiment is T4, EC5 deletion mutant of human CDH6 (human). The experiment in a line: flow cytometry; 293α cells transfected with EC5-deleted hCDH6 (open) vs untransfected control cells (shaded); antibody 20 nM; anti-rat IgG-FITC.
On to B1, for which the binding result was “binds”.
Still for that read-out and setting: next, B2: “binds”; B3: “binds”.
The same measure, in the same setting: next, B4: “binds”.

A further experiment concerns the target T1, EC4 deletion mutant of human CDH6 (human). The experiment in a line: flow cytometry; 293α cells transfected with EC4-deleted hCDH6 (open) vs untransfected control cells (shaded); APC anti-human IgG.
With B5, the binding result is listed as “binds”.
As to B6, the binding result is “binds”.

For another experiment, the target named is T2, EC2 deletion mutant of human CDH6 (human). Nature of the experiment: flow cytometry; 293α cells transfected with EC2-deleted hCDH6 (open) vs untransfected control cells (shaded); antibody 20 nM; anti-rat IgG-FITC.
Take B1: the binding result is on record as “binds”.
As for B2, the binding result is recorded as “binds”.
Same read-out and setting: the entry for B3 is “binds”; for B4 it is “binds”.
